Measured values taken from the supplement of paper PMC12823440, “Inhibitors supercharge kinase turnover through native proteolytic circuits” (Nature, 2025).
Where a name gives a salt, the structure may show the parent alone. The list shows a part of the results. The calls rarely recur for the same compound in another form.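 In K562 cells expressing nanoluciferase-fused kinases, luminescence was recorded at 4 h intervals between 2 and 18 h, normalized as percent of control with DMSO at 100% and a positive control at 0%. A significant (2 sigma) signal drop marks a time point as decreased. The authors' rule for a hit is not shown and takes in more than the number of time points.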

The chains behind the UniProt entries cited, without tags or fusion partners.
UniProt P29317, whole entry: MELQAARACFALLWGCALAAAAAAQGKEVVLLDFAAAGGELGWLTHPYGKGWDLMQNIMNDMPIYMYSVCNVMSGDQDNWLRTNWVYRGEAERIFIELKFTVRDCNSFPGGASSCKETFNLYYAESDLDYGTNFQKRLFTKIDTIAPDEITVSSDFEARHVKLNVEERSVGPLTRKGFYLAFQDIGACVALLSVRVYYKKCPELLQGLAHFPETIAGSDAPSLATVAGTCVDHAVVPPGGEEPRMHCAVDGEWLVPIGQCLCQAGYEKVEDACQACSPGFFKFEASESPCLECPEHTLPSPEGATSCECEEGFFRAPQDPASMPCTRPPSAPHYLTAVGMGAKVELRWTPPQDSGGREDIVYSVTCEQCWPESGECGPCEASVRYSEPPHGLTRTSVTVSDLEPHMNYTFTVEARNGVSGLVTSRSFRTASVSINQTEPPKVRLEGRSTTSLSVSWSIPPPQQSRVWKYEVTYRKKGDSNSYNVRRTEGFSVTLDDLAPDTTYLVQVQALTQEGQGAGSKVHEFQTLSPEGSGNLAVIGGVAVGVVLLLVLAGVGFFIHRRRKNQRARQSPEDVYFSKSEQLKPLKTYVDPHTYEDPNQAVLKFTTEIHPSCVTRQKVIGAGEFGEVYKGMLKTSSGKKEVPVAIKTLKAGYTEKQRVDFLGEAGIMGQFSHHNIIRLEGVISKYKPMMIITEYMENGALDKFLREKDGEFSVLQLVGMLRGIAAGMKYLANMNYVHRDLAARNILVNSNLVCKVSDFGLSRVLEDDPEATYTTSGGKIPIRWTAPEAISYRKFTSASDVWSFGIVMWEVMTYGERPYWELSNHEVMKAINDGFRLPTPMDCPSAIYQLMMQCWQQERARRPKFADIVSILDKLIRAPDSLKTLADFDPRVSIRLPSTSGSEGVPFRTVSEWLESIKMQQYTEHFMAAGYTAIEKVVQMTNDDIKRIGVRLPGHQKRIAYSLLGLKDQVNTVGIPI
UniProt P21860, whole entry: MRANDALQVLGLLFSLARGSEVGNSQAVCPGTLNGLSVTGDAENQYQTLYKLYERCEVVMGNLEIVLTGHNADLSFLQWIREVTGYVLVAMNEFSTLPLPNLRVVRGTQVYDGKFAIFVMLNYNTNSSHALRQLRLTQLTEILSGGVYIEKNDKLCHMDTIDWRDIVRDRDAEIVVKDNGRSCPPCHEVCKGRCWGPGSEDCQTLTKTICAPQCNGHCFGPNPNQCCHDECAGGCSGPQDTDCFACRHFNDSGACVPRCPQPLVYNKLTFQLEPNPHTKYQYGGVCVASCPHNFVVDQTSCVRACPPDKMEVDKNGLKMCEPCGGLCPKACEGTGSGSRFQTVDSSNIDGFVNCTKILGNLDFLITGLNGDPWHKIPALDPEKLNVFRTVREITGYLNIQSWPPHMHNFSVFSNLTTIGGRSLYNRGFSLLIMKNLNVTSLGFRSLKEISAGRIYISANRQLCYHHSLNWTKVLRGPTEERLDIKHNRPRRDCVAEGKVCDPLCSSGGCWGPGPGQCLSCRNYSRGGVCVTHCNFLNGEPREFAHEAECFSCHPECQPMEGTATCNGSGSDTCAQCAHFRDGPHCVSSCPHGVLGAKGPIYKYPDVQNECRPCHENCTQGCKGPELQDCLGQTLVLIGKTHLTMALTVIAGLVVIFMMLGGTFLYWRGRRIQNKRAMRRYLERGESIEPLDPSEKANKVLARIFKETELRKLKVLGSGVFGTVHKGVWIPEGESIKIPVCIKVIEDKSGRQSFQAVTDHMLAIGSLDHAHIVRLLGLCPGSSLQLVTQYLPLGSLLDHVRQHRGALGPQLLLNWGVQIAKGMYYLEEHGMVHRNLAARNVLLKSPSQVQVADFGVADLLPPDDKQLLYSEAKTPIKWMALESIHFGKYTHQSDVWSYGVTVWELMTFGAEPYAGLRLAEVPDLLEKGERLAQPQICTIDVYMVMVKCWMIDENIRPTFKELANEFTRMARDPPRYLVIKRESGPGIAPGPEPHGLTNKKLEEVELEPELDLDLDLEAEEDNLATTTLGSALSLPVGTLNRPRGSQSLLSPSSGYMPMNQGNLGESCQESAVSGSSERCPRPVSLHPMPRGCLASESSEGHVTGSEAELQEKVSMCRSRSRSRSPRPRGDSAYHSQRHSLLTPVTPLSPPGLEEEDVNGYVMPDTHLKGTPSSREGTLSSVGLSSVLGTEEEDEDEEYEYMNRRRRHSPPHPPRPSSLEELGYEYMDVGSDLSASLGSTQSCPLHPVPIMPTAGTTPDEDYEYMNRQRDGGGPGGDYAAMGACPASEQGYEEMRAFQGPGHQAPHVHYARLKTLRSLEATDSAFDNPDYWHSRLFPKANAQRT
UniProt Q15303, whole entry R711C: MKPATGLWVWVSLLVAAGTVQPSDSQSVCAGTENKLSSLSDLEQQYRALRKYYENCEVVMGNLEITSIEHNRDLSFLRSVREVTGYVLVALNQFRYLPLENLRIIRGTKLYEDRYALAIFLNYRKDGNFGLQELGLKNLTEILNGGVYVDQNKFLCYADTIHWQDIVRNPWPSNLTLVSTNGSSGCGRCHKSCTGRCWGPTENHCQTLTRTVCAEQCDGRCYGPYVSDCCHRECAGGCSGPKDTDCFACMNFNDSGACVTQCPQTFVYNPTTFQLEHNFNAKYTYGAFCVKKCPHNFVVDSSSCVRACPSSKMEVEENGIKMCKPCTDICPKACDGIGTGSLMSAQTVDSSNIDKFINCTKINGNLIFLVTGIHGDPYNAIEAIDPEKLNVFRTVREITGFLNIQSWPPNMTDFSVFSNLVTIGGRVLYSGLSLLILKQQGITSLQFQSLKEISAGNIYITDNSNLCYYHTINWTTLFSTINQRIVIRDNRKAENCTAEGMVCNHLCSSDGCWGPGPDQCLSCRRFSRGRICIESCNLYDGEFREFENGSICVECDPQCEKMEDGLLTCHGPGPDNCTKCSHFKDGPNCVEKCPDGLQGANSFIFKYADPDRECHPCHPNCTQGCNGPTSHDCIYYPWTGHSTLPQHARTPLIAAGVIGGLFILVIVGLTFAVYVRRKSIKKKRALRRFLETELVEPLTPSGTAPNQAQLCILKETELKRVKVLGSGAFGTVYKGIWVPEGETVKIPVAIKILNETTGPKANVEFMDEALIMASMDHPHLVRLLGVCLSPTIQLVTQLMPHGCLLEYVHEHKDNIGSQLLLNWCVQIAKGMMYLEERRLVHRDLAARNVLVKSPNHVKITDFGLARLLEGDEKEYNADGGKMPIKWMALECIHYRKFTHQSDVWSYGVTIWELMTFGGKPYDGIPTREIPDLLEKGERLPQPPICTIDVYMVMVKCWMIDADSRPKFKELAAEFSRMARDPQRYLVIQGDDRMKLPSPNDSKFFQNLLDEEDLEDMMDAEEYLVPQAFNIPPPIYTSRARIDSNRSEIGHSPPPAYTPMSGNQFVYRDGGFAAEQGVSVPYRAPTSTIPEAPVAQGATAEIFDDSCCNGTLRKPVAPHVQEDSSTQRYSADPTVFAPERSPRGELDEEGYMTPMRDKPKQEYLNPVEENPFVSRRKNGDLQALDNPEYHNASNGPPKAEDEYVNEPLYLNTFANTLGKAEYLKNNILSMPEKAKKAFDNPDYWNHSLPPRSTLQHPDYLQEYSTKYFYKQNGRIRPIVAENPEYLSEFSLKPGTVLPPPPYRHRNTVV

Key:
Assay in all cases: kinase-Nluc reporter destabilization hit call (1 = scored as downregulated) (binary); higher = compound decreases kinase abundance
Conditions in all cases: K562, 2-18 h
EGFR = EGFR (UniProt P00533)
EGFR_G719S = EGFR_G719S (UniProt P00533)
EGFR_G719S_T790M = EGFR_G719S_T790M (UniProt P00533)
EGFR_L718V = EGFR_L718V (UniProt P00533)
EGFR_L858R = EGFR_L858R (UniProt P00533)
EGFR_L861Q = EGFR_L861Q (UniProt P00533)
EGFR_T790M = EGFR_T790M (UniProt P00533)
EPHA2 = EPHA2 (UniProt P29317)
ERBB3 = ERBB3 (UniProt P21860)
[1] = biological target: ERBB4_R711C (clone: ERBB4_mut) (UniProt Q15303)

Row | Compound | kinase-Nluc reporter destabilization hit call (EGFR; 2.5 µM) | kinase-Nluc reporter destabilization hit call (EGFR_G719S; 2.5 µM) | kinase-Nluc reporter destabilization hit call (EGFR_G719S_T790M; 2.5 µM) | kinase-Nluc reporter destabilization hit call (EGFR_L718V; 2.5 µM) | kinase-Nluc reporter destabilization hit call (EGFR_L858R; 2.5 µM) | kinase-Nluc reporter destabilization hit call (EGFR_L861Q; 2.5 µM) | kinase-Nluc reporter destabilization hit call (EGFR_T790M; 2.5 µM) | kinase-Nluc reporter destabilization hit call (EPHA2; 2.5 µM) | kinase-Nluc reporter destabilization hit call (ERBB3; 2.5 µM) | kinase-Nluc reporter destabilization hit call ([1]; 2.5 µM) | kinase-Nluc reporter destabilization hit call (EGFR; 10 µM) | kinase-Nluc reporter destabilization hit call (EGFR_G719S; 10 µM) | kinase-Nluc reporter destabilization hit call (EGFR_G719S_T790M; 10 µM) | kinase-Nluc reporter destabilization hit call (EGFR_L718V; 10 µM) | kinase-Nluc reporter destabilization hit call (EGFR_L858R; 10 µM) | kinase-Nluc reporter destabilization hit call (EGFR_L861Q; 10 µM) | kinase-Nluc reporter destabilization hit call (EGFR_T790M; 10 µM) | kinase-Nluc reporter destabilization hit call (EPHA2; 10 µM) | kinase-Nluc reporter destabilization hit call (ERBB3; 10 µM) | kinase-Nluc reporter destabilization hit call ([1]; 10 µM)
1 | COc1cc(N2CCC(N3CCN(C)CC3)CC2)ccc1Nc1ncc(Cl)c(Nc2ccccc2S(=O)(=O)C(C)C)n1 | inactive: 0 | inactive: 0 | inactive: 0 | inactive: 0 | inactive: 0 | inactive: 0 | inactive: 0 | inactive: 0 | inactive: 0 | inactive: 0 | – | – | – | – | – | – | – | – | – | –
2 | Cc1ccc(Nc2nccc(N(C)c3ccc4c(C)n(C)nc4c3)n2)cc1S(N)(=O)=O [Pazopanib] | – | – | – | – | – | – | – | – | – | – | inactive: 0 | inactive: 0 | inactive: 0 | inactive: 0 | inactive: 0 | inactive: 0 | inactive: 0 | inactive: 0 | inactive: 0 | inactive: 0
3 | O=C(Nc1cccc(Nc2nccc(Nc3cccc(C(F)(F)F)c3)n2)c1)C1CC1 [Aurora kinase inhibitor-3] | inactive: 0 | inactive: 0 | inactive: 0 | inactive: 0 | inactive: 0 | inactive: 0 | inactive: 0 | inactive: 0 | inactive: 0 | inactive: 0 | – | – | – | – | – | – | – | – | – | –
4 | Cc1cc(C)n2c1C=C1C=CC(CCC(=O)NCCN3CCN(C/C=C/C(=O)N4CCCC(n5nc(-c6ccc(Oc7ccccc7)cc6)c6c(N)ncnc65)C4)CC3)=[N+]1[B-]2(F)F (stereo not given) | inactive: 0 | inactive: 0 | inactive: 0 | inactive: 0 | inactive: 0 | inactive: 0 | inactive: 0 | inactive: 0 | inactive: 0 | inactive: 0 | – | – | – | – | – | – | – | – | – | –
5 | CC(C)[C@@](C)(O)[C@@H]1CN(c2nc(-c3[nH]nc4ncccc34)c(F)cc2Cl)CCN1 | – | – | – | – | – | – | – | – | – | – | inactive: 0 | inactive: 0 | inactive: 0 | inactive: 0 | inactive: 0 | inactive: 0 | inactive: 0 | inactive: 0 | inactive: 0 | inactive: 0
6 | C[C@H]1CN(C2COC2)CCN1c1ccc(Nc2cc(-c3ccnc(N4CCn5c(cc6c5CC(C)(C)C6)C4=O)c3CO)cn(C)c2=O)nc1 [Fenebrutinib] | – | – | – | – | – | – | – | – | – | – | inactive: 0 | inactive: 0 | inactive: 0 | inactive: 0 | inactive: 0 | inactive: 0 | inactive: 0 | inactive: 0 | inactive: 0 | inactive: 0
7 | Nc1nc(Nc2ccc(S(N)(=O)=O)cc2)nn1C(=O)c1c(F)cccc1F | inactive: 0 | inactive: 0 | inactive: 0 | inactive: 0 | inactive: 0 | inactive: 0 | inactive: 0 | inactive: 0 | inactive: 0 | inactive: 0 | – | – | – | – | – | – | – | – | – | –
8 | C[C@@H]1O[C@@H](Oc2c(-c3ccc(O)c(O)c3)oc3cc(O)cc(O)c3c2=O)[C@H](O)[C@H](O)[C@H]1O [Quercitrin] | – | – | – | – | – | – | – | – | – | – | inactive: 0 | inactive: 0 | inactive: 0 | inactive: 0 | inactive: 0 | inactive: 0 | inactive: 0 | inactive: 0 | inactive: 0 | inactive: 0
9 | COc1ccc(-c2cc3nccn3c(Nc3ncccc3C(N)=O)n2)cc1OC [BAY 61-3606 (dihydrochloride)] | inactive: 0 | inactive: 0 | inactive: 0 | inactive: 0 | inactive: 0 | inactive: 0 | inactive: 0 | inactive: 0 | inactive: 0 | inactive: 0 | – | – | – | – | – | – | – | – | – | –
10 | NCCNc1ncc(C(N)=O)c(Nc2cccc(C(F)(F)F)c2)n1 [Syk Inhibitor II] | – | – | – | – | – | – | – | – | – | – | inactive: 0 | inactive: 0 | inactive: 0 | inactive: 0 | inactive: 0 | inactive: 0 | inactive: 0 | inactive: 0 | inactive: 0 | inactive: 0
11 | Nc1ncccc1-c1nc2ccc(-c3ccccc3)nc2n1-c1ccc(C2(N)CCC2)cc1 [Miransertib] | – | – | – | – | – | – | – | – | – | – | inactive: 0 | inactive: 0 | inactive: 0 | inactive: 0 | inactive: 0 | inactive: 0 | inactive: 0 | inactive: 0 | inactive: 0 | inactive: 0
12 | Cc1[nH]c(/C=C2\C(=O)Nc3ccc(F)cc32)c(C)c1C(=O)NC[C@H](O)CN1CCOCC1 | inactive: 0 | inactive: 0 | inactive: 0 | inactive: 0 | inactive: 0 | inactive: 0 | inactive: 0 | inactive: 0 | inactive: 0 | inactive: 0 | – | – | – | – | – | – | – | – | – | –
13 | NC1(C(=O)N[C@@H](CCO)c2ccc(Cl)cc2)CCN(c2nc[nH]c3nccc2-3)CC1 [Capivasertib] | – | – | – | – | – | – | – | – | – | – | inactive: 0 | inactive: 0 | inactive: 0 | inactive: 0 | inactive: 0 | inactive: 0 | inactive: 0 | inactive: 0 | inactive: 0 | inactive: 0
14 | CCCOc1ccc(C=C2SC(=O)NC2=O)cc1 | – | – | – | – | – | – | – | – | – | – | inactive: 0 | inactive: 0 | inactive: 0 | inactive: 0 | inactive: 0 | inactive: 0 | inactive: 0 | inactive: 0 | inactive: 0 | inactive: 0
15 | CCc1cc2c(cc1-c1cnn(CC(=O)N(C)C)c1)C(C)(C)c1[nH]c3cc(C#N)ccc3c1C2=O | inactive: 0 | inactive: 0 | inactive: 0 | inactive: 0 | inactive: 0 | inactive: 0 | inactive: 0 | inactive: 0 | inactive: 0 | inactive: 0 | – | – | – | – | – | – | – | – | – | –
16 | O=c1ncn2nc(Sc3ccc(F)cc3F)ccc2c1-c1c(Cl)cccc1Cl [Neflamapimod] | – | – | – | – | – | – | – | – | – | – | inactive: 0 | inactive: 0 | inactive: 0 | inactive: 0 | inactive: 0 | inactive: 0 | inactive: 0 | inactive: 0 | inactive: 0 | inactive: 0
17 | Cc1ccc(Nc2nccc(N(C)c3ccc4c(C)n(C)nc4c3)n2)cc1S(N)(=O)=O [Pazopanib (Hydrochloride)] | – | – | – | – | – | – | – | – | – | – | inactive: 0 | inactive: 0 | inactive: 0 | inactive: 0 | inactive: 0 | inactive: 0 | inactive: 0 | inactive: 0 | inactive: 0 | inactive: 0
18 | CC1(C)C(=O)N([C@H]2CCc3c(O)cccc32)c2nc(Nc3cccc(CN4CCCC4)c3)ncc21 | inactive: 0 | inactive: 0 | inactive: 0 | inactive: 0 | inactive: 0 | inactive: 0 | inactive: 0 | inactive: 0 | inactive: 0 | inactive: 0 | – | – | – | – | – | – | – | – | – | –
19 | Cc1cc2c(F)c(Oc3ncnn4cc(OC[C@@H](C)O)c(C)c34)ccc2[nH]1 [Brivanib] | – | – | – | – | – | – | – | – | – | – | inactive: 0 | inactive: 0 | inactive: 0 | inactive: 0 | inactive: 0 | inactive: 0 | inactive: 0 | inactive: 0 | inactive: 0 | inactive: 0
20 | C[C@H]1Oc2cc(cnc2N)-c2c(nn(C)c2C#N)CN(C)C(=O)c2ccc(F)cc21 [Lorlatinib] | – | – | – | – | – | – | – | – | – | – | inactive: 0 | inactive: 0 | inactive: 0 | inactive: 0 | inactive: 0 | inactive: 0 | inactive: 0 | inactive: 0 | inactive: 0 | inactive: 0
21 | Fc1ccc(-c2nc(-c3ccc4ccccc4c3F)[nH]c2-c2ccncc2)cc1 | – | – | – | – | – | – | – | – | – | – | inactive: 0 | inactive: 0 | inactive: 0 | inactive: 0 | inactive: 0 | inactive: 0 | inactive: 0 | inactive: 0 | inactive: 0 | inactive: 0
22 | C=CC(=O)N(C)CCOc1c(N)ncnc1-c1cc(F)cc(NC(=O)c2ccc(C3CC3)cc2F)c1C [Remibrutinib] | – | – | – | – | – | – | – | – | – | – | inactive: 0 | inactive: 0 | inactive: 0 | inactive: 0 | inactive: 0 | inactive: 0 | inactive: 0 | inactive: 0 | inactive: 0 | inactive: 0
23 | CCn1c(=O)c(-c2cc(NC(=O)Nc3ccccc3)c(F)cc2Br)cc2cnc(NC)cc21 [Ripretinib] | – | – | – | – | – | – | – | – | – | – | inactive: 0 | inactive: 0 | inactive: 0 | inactive: 0 | inactive: 0 | inactive: 0 | inactive: 0 | inactive: 0 | active: 1 | inactive: 0
24 | COc1cc(N2CCN(C)CC2)ccc1Nc1nccc(-c2cn(C)c3cnccc23)n1 | – | – | – | – | – | – | – | – | – | – | inactive: 0 | inactive: 0 | inactive: 0 | inactive: 0 | inactive: 0 | inactive: 0 | inactive: 0 | inactive: 0 | inactive: 0 | inactive: 0
25 | COc1ccc(-c2cc(C(=O)NN=C(C)c3ccc(OC)c(OC)c3)[nH]n2)cc1 | – | – | – | – | – | – | – | – | – | – | inactive: 0 | inactive: 0 | inactive: 0 | inactive: 0 | inactive: 0 | inactive: 0 | inactive: 0 | inactive: 0 | inactive: 0 | inactive: 0
26 | O=C(NCCCNc1nc(Nc2cccc(CN3CCOCC3)c2)ncc1C1CC1)C1CCC1 | – | – | – | – | – | – | – | – | – | – | inactive: 0 | inactive: 0 | inactive: 0 | inactive: 0 | inactive: 0 | inactive: 0 | inactive: 0 | inactive: 0 | inactive: 0 | inactive: 0

Reformatted with tabs: part of the list above
Row	Compound	kinase-Nluc reporter destabilization hit call (EGFR; 2.5 µM)	kinase-Nluc reporter destabilization hit call (EGFR_G719S; 2.5 µM)	kinase-Nluc reporter destabilization hit call (EGFR_G719S_T790M; 2.5 µM)	kinase-Nluc reporter destabilization hit call (EGFR_L718V; 2.5 µM)	kinase-Nluc reporter destabilization hit call (EGFR_L858R; 2.5 µM)	kinase-Nluc reporter destabilization hit call (EGFR_L861Q; 2.5 µM)	kinase-Nluc reporter destabilization hit call (EGFR_T790M; 2.5 µM)	kinase-Nluc reporter destabilization hit call (EPHA2; 2.5 µM)	kinase-Nluc reporter destabilization hit call (ERBB3; 2.5 µM)	kinase-Nluc reporter destabilization hit call ([1]; 2.5 µM)	kinase-Nluc reporter destabilization hit call (EGFR; 10 µM)	kinase-Nluc reporter destabilization hit call (EGFR_G719S; 10 µM)	kinase-Nluc reporter destabilization hit call (EGFR_G719S_T790M; 10 µM)	kinase-Nluc reporter destabilization hit call (EGFR_L718V; 10 µM)	kinase-Nluc reporter destabilization hit call (EGFR_L858R; 10 µM)	kinase-Nluc reporter destabilization hit call (EGFR_L861Q; 10 µM)	kinase-Nluc reporter destabilization hit call (EGFR_T790M; 10 µM)	kinase-Nluc reporter destabilization hit call (EPHA2; 10 µM)	kinase-Nluc reporter destabilization hit call (ERBB3; 10 µM)	kinase-Nluc reporter destabilization hit call ([1]; 10 µM)
1	COc1cc(N2CCC(N3CCN(C)CC3)CC2)ccc1Nc1ncc(Cl)c(Nc2ccccc2S(=O)(=O)C(C)C)n1	inactive: 0	inactive: 0	inactive: 0	inactive: 0	inactive: 0	inactive: 0	inactive: 0	inactive: 0	inactive: 0	inactive: 0	–	–	–	–	–	–	–	–	–	–
2	Cc1ccc(Nc2nccc(N(C)c3ccc4c(C)n(C)nc4c3)n2)cc1S(N)(=O)=O [Pazopanib]	–	–	–	–	–	–	–	–	–	–	inactive: 0	inactive: 0	inactive: 0	inactive: 0	inactive: 0	inactive: 0	inactive: 0	inactive: 0	inactive: 0	inactive: 0
